# Measurements reported in the supplement of paper PMC9135407.
# Values joined by “and” are separate entries in the source; they are usually repeats but may differ in a detail not shown here. Equal values may be shown once. Where a name gives a salt, the structure may show the parent alone. ± gives the standard deviation of the averaged measurements. The list shows a part of the results. Part of the spread comes from offsets between plates or batches.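 Culture-activated primary human stellate myofibroblasts, where regained lipid droplets signal inactivation. Value: share of Hoechst-counted cells above a per-plate Bodipy cutoff, in duplicate wells, with DMSO negative and nortriptyline positive controls on each plate. Hits: a control-normalized score above the plate's top-tenth-percentile nortriptyline wells, or one of a plate's three best wells. Final well concentrations are not given.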
# Test system: primary human hepatic stellate cells (donor 1)
# Assay: percent Bodipy-positive cells; higher = more lipid droplet accumulation
# Conditions: 48 h
# [1] = library stock concentration: 3.33 mM
# [2] = library stock concentration: 10 mM
# [3] = library stock concentration: 1 mM
# [4] = library stock concentration: 4.8 mM
structure (smiles),measurement,setting,value
CNC(C)C(=O)NC(C(=O)N1CCCC1C(=O)NC(C(=O)NCCCCCCNC(=O)C(NC(=O)C1CCCN1C(=O)C(NC(=O)C(C)NC)C1CCCCC1)C(c1ccccc1)c1ccccc1)C(c1ccccc1)c1ccccc1)C1CCCCC1 (stereo not drawn),percent Bodipy-positive cells,[1],68.7 ± 9.4%
same,percent Bodipy-positive cells,[2],100%
CC(=O)c1cc([N+](=O)[O-])c(Sc2cccc(Cl)c2Cl)s1,percent Bodipy-positive cells,[1],50 ± 30%
same,percent Bodipy-positive cells,[2],72.8 ± 16%
COc1cc2c(cc1OC)CN(CCc1ccc(NC(=O)c3cc(OC)c(OC)cc3NC(=O)c3cnc4ccccc4c3)cc1)CC2 [Tariquidar],percent Bodipy-positive cells,[1],36.8 ± 0.66%
same,percent Bodipy-positive cells,[2],60.7 ± 9.3%
NC1(Cc2ccc(Cl)cc2)CCN(c2ncnc3[nH]ccc23)CC1,percent Bodipy-positive cells,[2],97.64 ± 0.41%
"FC(F)(F)c1cc(COC2CCCNC2c2ccccc2)cc(C(F)(F)F)c1 [L-733,060 hydrochloride]",percent Bodipy-positive cells,[2],89.5 ± 7.7%
COc1cc(Cc2cnc(N)nc2N)cc(OC)c1OC [Trimethoprim],percent Bodipy-positive cells,,26.2 ± 4.2%
same,percent Bodipy-positive cells,[1],10.5 ± 4.4%
same,percent Bodipy-positive cells,library stock concentration: 6.9 mM,8.29% and 14.1%
same,percent Bodipy-positive cells,[2],25.8% and 28.4% and 13.3%
NC(=O)C(=O)O [Sodium Oxamate],percent Bodipy-positive cells,[2],32.9 ± 7.7%
COc1ccccc1OCCNCC(O)COc1cccc2[nH]c3ccccc3c12 (stereo not drawn) [Carvedilol],percent Bodipy-positive cells,[2],94.9 ± 0.14%
NC(=O)CCC/C=C\C[C@@H]1[C@@H](/C=C/[C@@H](O)CCc2ccccc2)[C@H](O)C[C@@H]1O [17-phenyl trinor Prostaglandin F2.alpha. amide],percent Bodipy-positive cells,[3],15.9 ± 4.5%
COCC1=C(C(=O)OC(C)OC(=O)OC(C)C)N2C(=O)[C@@H](NC(=O)/C(=N\OC)c3csc(N)n3)[C@H]2SC1 (stereo partly drawn) [Cefpodoxime proxetil],percent Bodipy-positive cells,library stock concentration: 3.6 mM,14 ± 6.7%
COCC1=C(C(=O)OC(C)OC(=O)OC(C)C)N2C(=O)[C@@H](NC(=O)/C(=N\OC)c3csc(N)n3)[C@H]2SC1 (stereo partly drawn),percent Bodipy-positive cells,[2],6.39 ± 4%
CCN(CC)CCOC(=O)C(c1ccccc1)C1CCCCC1 (stereo not drawn) [Drofenine hydrochloride],percent Bodipy-positive cells,,35.7 ± 0.62%
same,percent Bodipy-positive cells,[2],62.7 ± 5.7%
CN(C)c1cc2c(Nc3ccc4c(cnn4Cc4ccccc4)c3)ncnc2cn1,percent Bodipy-positive cells,[2],77.3 ± 6.6%
COc1ccc([C@H]2CNC(=O)C2)cc1OC1CCCC1 [(S)-(+)-Rolipram],percent Bodipy-positive cells,[2],12.1 ± 7.3%
CCC(C)C(COC(Cc1ccccc1)C(=O)NC(CCS(C)(=O)=O)C(=O)OC(C)C)NCC(N)CS (stereo not drawn),percent Bodipy-positive cells,library stock concentration: 7.9 mM,30.9 ± 2.3%
COc1ccccc1C1(O)CCN(CCCn2c3ccccc3c3ccccc32)CC1 [NNC 05-2090 hydrochloride],percent Bodipy-positive cells,[2],96.49 ± 0.93%
CC(CCCO)C1CCC2C3C(O)CC4CC(=O)CCC4(C)C3CC(O)C12C (stereo not drawn) [3-keto Petromyzonol],percent Bodipy-positive cells,[3],16.7 ± 9.8%
NC(N)=NCc1cccc(I)c1 [m-Iodobenzylguanidine hemisulfate],percent Bodipy-positive cells,[2],32.9 ± 2.5%
CCCCC(CC)CN1CN(CC(CC)CCCC)CC(C)(N)C1 (stereo not drawn) [Hexetidine],percent Bodipy-positive cells,,38.9 ± 14%
same,percent Bodipy-positive cells,[2],71.4 ± 3.2%
COc1cc2c(cc1OC)C(=O)C(CC1CCN(Cc3ccccc3)CC1)C2 (stereo not drawn) [Donepezil],percent Bodipy-positive cells,[2],32.8 ± 15%
COc1cc2c(cc1OC)C(=O)C(CC1CCN(Cc3ccccc3)CC1)C2 (stereo not drawn) [Donepezil hydrochloride],percent Bodipy-positive cells,[4],36.1 ± 8.7%
C=CC(=O)c1ccc2ccccc2c1,percent Bodipy-positive cells,[2],6.83 ± 0.56%
NC[C@H]1c(c2C[C@@H]([C@]3(C4)CC(CC45)CC(C5)C3)O1)ccc(O)c2O.Cl,percent Bodipy-positive cells,[2],76.6 ± 3.6%
O=C(O)CCC/C=C\C[C@@H]1[C@@H](/C=C/C(=O)COc2cccc(C(F)(F)F)c2)[C@H](O)C[C@@H]1O [15-keto Fluprostenol],percent Bodipy-positive cells,[3],16.5 ± 7.4%
N#CC(=C(/N)Sc1ccccc1N)/C(C#N)=C(/N)Sc1ccccc1N,percent Bodipy-positive cells,[2],17.1% and 5.83%
same,percent Bodipy-positive cells,library stock concentration: 13.1 mM,20.3 ± 3.9%
NS(=O)(=O)c1cccc2c1c([N+](=O)[O-])cc1nc(O)c(O)nc12 [NBQX disodium],percent Bodipy-positive cells,[2],34.4 ± 11%
NS(=O)(=O)c1cccc2c1c([N+](=O)[O-])cc1nc(O)c(O)nc12 [NBQX disodium salt],percent Bodipy-positive cells,[2],8.57 ± 1.6%
NS(=O)(=O)c1cccc2c1c([N+](=O)[O-])cc1nc(O)c(O)nc12,percent Bodipy-positive cells,[2],7.19 ± 2.6%
CC(=O)c1ccc2c(c1)N(CCCN1CCC(CCO)CC1)c1ccccc1S2 [Piperacetazine],percent Bodipy-positive cells,,35.2 ± 3.8%
CCCCCCCCCCCCCCCC(=O)OCC [Palmitic Acid ethyl ester],percent Bodipy-positive cells,[3],11.3 ± 3.9%
N#CC(=Cc1ccc(O)c(O)c1)C(=O)NCc1ccccc1 [AG-490 (Tyrphostin B42)],percent Bodipy-positive cells,[1],7.67 ± 0.99%
same,percent Bodipy-positive cells,[2],16.1 ± 9.8%
CO[C@@]1(NC(=O)Cc2cccs2)C(=O)N2C(C(=O)O)=C(COC(N)=O)CS[C@@H]21 [Cefoxitin sodium salt],percent Bodipy-positive cells,,8.4 ± 1.5%
CO[C@@]1(NC(=O)Cc2cccs2)C(=O)N2C(C(=O)O)=C(COC(N)=O)CS[C@@H]21 [Cefoxitin sodium],percent Bodipy-positive cells,library stock concentration: 4.5 mM,10.2 ± 0.93%
same,percent Bodipy-positive cells,[2],28.2 ± 16%
Br.CN(C)CCCC1(c2ccc(F)cc2)OCc2cc(C#N)ccc21 (stereo not drawn) [Citalopram hydrobromide],percent Bodipy-positive cells,[2],89.94 ± 0.78%
COc1ccccc1-c1cc(Nc2cccc(CS(N)(=O)=O)c2)ncn1,percent Bodipy-positive cells,[1],54.4 ± 8.5%
same,percent Bodipy-positive cells,[2],67.8 ± 7.5%
CC1(COc2ccc3c(c2)ncn3-c2ccc3cccc(N4CCC(N)CC4)c3n2)COC1,percent Bodipy-positive cells,[2],95.13 ± 0.56%
Cc1cncc(CN2CCC(=C3c4ccc(Cl)cc4CCc4cccnc43)CC2)c1.O=C(O)C=CC(=O)O [Rupatadine Fumarate],percent Bodipy-positive cells,[2],63.9 ± 0.84%
CCCCCCCCCCCCC/C=C/[C@@H](O)[C@H](CO)NC(=O)CCCCCCCCCCCCCCC [C16 Ceramide],percent Bodipy-positive cells,[3],13.1 ± 14%
O=C(CCCN1CCC(O)(c2ccc(Br)cc2)CC1)c1ccc(F)cc1 [Bromperidol],percent Bodipy-positive cells,,68.3 ± 1.6%
same,percent Bodipy-positive cells,[4],74.1 ± 21%
C[C@@H](Oc1cc(-n2cnc3ccc(CN4CCN(C)CC4)cc32)sc1C(N)=O)c1ccccc1C(F)(F)F,percent Bodipy-positive cells,library stock concentration: 80 uM,13.8 ± 2.8%
same,percent Bodipy-positive cells,library stock concentration: 400 uM,23.9 ± 5%
same,percent Bodipy-positive cells,[2],99.67 ± 0.47%
CNCC[C@H](Oc1cccc2ccccc12)c1cccs1 [Duloxetine HCl],percent Bodipy-positive cells,[1],61.9 ± 1.3%
same,percent Bodipy-positive cells,[2],99.59 ± 0.58%
CNCC[C@H](Oc1cccc2ccccc12)c1cccs1,percent Bodipy-positive cells,[2],98.59 ± 0.34%

# Retrieved one by one from above:
structure (smiles),measurement,setting,value
NC(=O)CCC/C=C\C[C@@H]1[C@@H](/C=C/[C@@H](O)CCc2ccccc2)[C@H](O)C[C@@H]1O [17-phenyl trinor Prostaglandin F2.alpha. amide],percent Bodipy-positive cells,[3],15.9 ± 4.5%
C[C@@H](Oc1cc(-n2cnc3ccc(CN4CCN(C)CC4)cc32)sc1C(N)=O)c1ccccc1C(F)(F)F,percent Bodipy-positive cells,library stock concentration: 400 uM,23.9 ± 5%
COc1ccc([C@H]2CNC(=O)C2)cc1OC1CCCC1 [(S)-(+)-Rolipram],percent Bodipy-positive cells,[2],12.1 ± 7.3%
